# Laboratory results from the supplement of paper PMC4683952.
# The other results are listed elsewhere or left out. Rule as the data show it: active = 2 or more and inactive = the rest. Single values are uncertain here, since repeats match poorly.
# Test system: Lgr5 (MarsCy1-Lgr5-EGFP, U2OS)
# Assay: cell-surface Lgr5 expression (SCi1 fluorescence, background-subtracted) relative to WT DMSO (fold of DMSO control); higher = more Lgr5 at the plasma membrane
# Conditions: U2OS MarsCy1-Lgr5-EGFP stable; treatment time: overnight; library: ActiProbe-5K (TimTec); 25 µM
row,SMILES,cell-surface Lgr5 expression
1,c1ccc(-c2ccc(-c3nncc(-c4ccccc4)n3)nc2)cc1,inactive: 1.2
2,CNc1nc(Cl)nc(Cl)n1,inactive: 1.52
3,Cc1cc(=O)n2nc(N)sc2n1,inactive: 1.18
4,O=C(Nc1c[nH]c(=O)[nH]c1=O)c1ccco1,inactive: 1.31
5,CC(C)(C)c1cn2c3ccccc3nc2n1CCN1CCCC1,inactive: 1.6
6,O=C(C1CC1)N1CCN(C(=O)C23CC4CC(CC(C4)C2)C3)CC1,inactive: 0.86
7,Cc1nc2cc3c(cc2s1)OCO3,inactive: 1.26
8,O=C(NS(=O)(=O)Oc1ccc(F)cc1)OC[C@@H]1CCCN2CCCCC12 (some centres undefined),inactive: 1.39
9,O=C(O)C12CC3CC(CC(O)(C3)C1)C2,inactive: 1.09
10,Cn1ncc(N)c1C(N)=O,inactive: 1.24
11,Cc1cc([N+](=O)[O-])nn1CC(C)c1nc(-c2cccs2)no1 (centres undefined),inactive: 1.15
12,Brc1ccc2c(c1)[C@@H]1C=CC[C@@H]1[C@H](c1ccncc1)N2,inactive: 0.655
13,N#Cc1c(NC(=O)C2CC2)sc2c1CCCCC2,inactive: 1.19
14,CC1=NC(=O)C2C(=O)O/C(=C\c3ccc4c(c3)OCO4)C2=C1 (centres undefined),inactive: 1.13
15,O=S1(=O)CC(O)C(NCc2ccco2)C1 (centres undefined),inactive: 1.12
16,O/N=C\c1sccc1Br,inactive: 1.21
17,O=[N+]([O-])c1ccc(N2CCCC2)cc1NC1CC1,inactive: 0.824
18,Cn1c(=O)c2c(ncn2CC(=O)N/N=C/C=C/c2ccco2)n(C)c1=O,inactive: 1.1
19,S=c1n(Cc2ccccc2)ccn1CN1CCC2(CC1)OCCO2,inactive: 1.1
20,CCN1C(=O)/C(=C2\SC(=S)N(CC3CCCO3)C2=O)c2ccccc21 (centres undefined),inactive: 1.27
21,Nc1ccc(C2OCOCC2O)cc1 (centres undefined),inactive: 1.02
22,Nc1c(C(=O)C23CC4CC(CC(C4)C2)C3)sc2sc3c(O)cc(=O)[nH]c3c12,inactive: 0.867
23,O=C(CSc1nc2[nH]c(=O)cc(O)c2s1)NC1CCCC1,inactive: 1.15
24,On1c(-c2ccccc2Cl)nc2c1CCc1nonc1-2,inactive: 1.3
25,C/C(=N\N1CCN(C2c3ccccc3-c3ccccc32)CC1)c1ccco1,inactive: 1.04
26,Cl.N[C@H]1C[C@@H](CO)[C@H](O)[C@@H]1O,inactive: 1.21
27,Brc1ccc(-c2cnn3cnnc3n2)cc1,inactive: 0.991

row,SMILES,cell-surface Lgr5 expression
1,CN(C)S(=O)(=O)N(C)c1ccccc1,inactive: 1.05
2,CCC1([N+](=O)[O-])COCOC1,inactive: 0.868
3,O=c1[nH]cnc2c1nc(Br)n2C1OC(CO)C(O)C1O (centres undefined),inactive: 1.46
4,Oc1ccc2ccccc2c1Sc1c(O)ccc2ccccc12,inactive: 0.879
5,COc1ccc(S(=O)(=O)NCC2CCCO2)c(Cl)c1Cl (centres undefined),inactive: 1.27
6,CC1(C)CC2(CC(C)(C)N1)OC(=O)N(CCCO)C2(C)O (centres undefined),inactive: 1.08
7,CSCCC1NC(=S)N(C)C1=O (centres undefined),inactive: 1.11
8,Fc1cccc(/C=N\n2c(S)nnc2-c2ccccc2)c1,inactive: 1.01
9,Clc1ccc(-n2cnnn2)cc1,inactive: 1.09
10,O=C(NCCNC(=O)c1ccn[nH]1)c1ccn[nH]1,inactive: 1.1
11,Cn1c(=S)sc2ccccc21,inactive: 1.31
12,NC1(CN2CCCCC2)CCCCC1,inactive: 1.24
13,C[N+]1(CCOCc2ccccc2)CC[N+](C)(CCOCc2ccccc2)CC1 (centres undefined),inactive: 1.18
14,Cc1cc(Cl)nc2ccc(F)cc12,inactive: 1.15
15,COc1ccc(S(=O)(=O)Nc2ncccn2)cc1,inactive: 1.15
16,Sc1nnc(-c2cc(-c3ccccc3)n[nH]2)n1/N=C/C=C\c1ccco1,inactive: 1.1
17,CCOCn1cc(NC(=S)NCc2ccco2)cn1,inactive: 1.21
18,Fc1ccc(CSc2nc3ccccc3o2)c2ccccc12,inactive: 1.49
19,NC1=Nc2ccc(Cl)cc2SC1,inactive: 0.811
20,Fc1ccc(/C=C\c2nnc(-c3ccc(Cl)cc3Cl)o2)cc1,inactive: 1.03
21,Cn1cccc1/C=N\Nc1ccc(F)cc1,inactive: 1.11
22,N#C/C(=C\c1ccncc1)C(N)=S,inactive: 1.18
23,COC1CCCCC1Nc1ccc2c(c1)CCC2 (centres undefined),inactive: 1.3
24,C/C(=N\N1C(=O)c2ccccc2C1=O)C1C(=O)c2ccccc2C1=O,inactive: 1.07
25,Nc1nc(-c2sc3nc4c(cc3c2N)CCCCC4)nc(N2CCOCC2)n1,inactive: 1.24
26,c1csc(CN2CCN(Cc3cccs3)C2c2cccs2)c1,inactive: 1.3
27,Cc1nn(C)cc1-c1nnc(CCn2cc([N+](=O)[O-])cn2)o1,inactive: 1.15

# Compounds above with a carbonyl joined to an NH by a bond outside any ring, in the order listed:
row,SMILES,cell-surface Lgr5 expression
4,O=C(Nc1c[nH]c(=O)[nH]c1=O)c1ccco1,inactive: 1.31
8,O=C(NS(=O)(=O)Oc1ccc(F)cc1)OC[C@@H]1CCCN2CCCCC12 (some centres undefined),inactive: 1.39
10,Cn1ncc(N)c1C(N)=O,inactive: 1.24
13,N#Cc1c(NC(=O)C2CC2)sc2c1CCCCC2,inactive: 1.19
18,Cn1c(=O)c2c(ncn2CC(=O)N/N=C/C=C/c2ccco2)n(C)c1=O,inactive: 1.1
23,O=C(CSc1nc2[nH]c(=O)cc(O)c2s1)NC1CCCC1,inactive: 1.15
10,O=C(NCCNC(=O)c1ccn[nH]1)c1ccn[nH]1,inactive: 1.1

# Pulled by structure from above, two records:
row,SMILES,cell-surface Lgr5 expression
17,CCOCn1cc(NC(=S)NCc2ccco2)cn1,inactive: 1.21
3,O=c1[nH]cnc2c1nc(Br)n2C1OC(CO)C(O)C1O (centres undefined),inactive: 1.46
